Measured data: PubChem BioAssay AID1159584 (Peter MacCallum Cancer Centre, 2016)
In all, the deposit lists about 18,000 reagents; this is a random part of them. Not all columns of the deposit are shown. No sequences are given here. Not given: the amount of reagent, the time to read-out.

- Test: 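Genes whose loss is lethal only together with E-cadherin loss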 (primary screen)
- Cells: human MCF10A breast epithelial cells, parental and CDH1-null
- Knock-down reagent: siRNA against human genes
- Read-out: 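Cell viability by CellTiter-Glo ATP luminescence, each line scaled to the mean of mock wells across plates, then CDH1-null over parental ratio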
- Direction: CDH1-null / parental viability ratio: higher = CDH1-null cells survive relatively better than parental

What did the screen give for LSS?
CDH1-null / parental viability ratio: 1.38

What did the screen give for SULT1C3?
CDH1-null / parental viability ratio: 0.83

For FAM194C, what does the deposit list?
CDH1-null / parental viability ratio: 1.04

What did the screen give for TGFB2?
CDH1-null / parental viability ratio: 1.11

How did the screen score PDCD10?
CDH1-null / parental viability ratio: 1.22

For LEAP2, what does the deposit list?
CDH1-null / parental viability ratio: 1.43

How did the screen score SLIT1?
CDH1-null / parental viability ratio: 1.06

For DOP1B, what does the deposit list?
CDH1-null / parental viability ratio: 1.03

With TLR7, how do the results read?
CDH1-null / parental viability ratio: 0.84

With MAP1LC3C, how do the results read?
CDH1-null / parental viability ratio: 1.01

With PRAC1, what does the deposit list?
CDH1-null / parental viability ratio: 0.88

How did the screen score KBTBD3?
CDH1-null / parental viability ratio: 1.17

With TXK, what was measured?
CDH1-null / parental viability ratio: 1.19

What is on record for JAG2?
CDH1-null / parental viability ratio: 0.95

Already shown: an excerpt of the list.
LEAP2 → CDH1-null / parental viability ratio: 1.43
SLIT1 → CDH1-null / parental viability ratio: 1.06
